The values that follow are results of earlier work, collected in US20040248765A1, “Tumour targeting prodrugs activated by metallo matrixproteinases” (priority 2001, published 2004).

The conditions of the data set: man; cited from earlier work.

Structures are written as SMILES.

For `COc1cccc2c1C(=O)c1c(O)c3c(c(O)c1C2=O)C[C@@](O)(C(=O)CO)C[C@@H]3O[C@H]1C[C@H](N)[C@H](O)[C@H](C)O1` [doxorubicin], the maximum tolerated dose is 1 to 2 mg/kg.
